This is an account of results in publication PMC4106197.

These are yes or no findings as the source states them, for the method shown. In cells and extracts the contact can be indirect. A result given as binding can be weak or reduced; the word gives no strength.

The experiment addresses PhS3L-SLF1::FLAG (Petunia hybrida). Description: co-IP; in vitro germinated S1/PhS3L-SLF1::FLAG pollen tubes continuously treated with S3S3 or S3LS3L style extracts; pollen tube extracts with anti-FLAG affinity gel 4 h at 4°C, PBS washes; blot with PhS-RNase and FLAG antibodies.

B1: PhS3-RNase from S3S3 style extract (enzyme, UniProt Q40875 23-222)
chain: NFDYFQLVLTWPASFCYPKNKCQRRSNNFTIHGLWPEKKRFRLEFCTGDKYKRFLEEDNIINVLERHWIQMRFDETYANTKQPLWEHEYNRHGICCKNLYDQKAYFLLAMRLKDKLDLLTTLRTHGITPGTKHTFGEIQKAIKTVTSNNDPDLKCVENIKGVMELNEIGICYTPAADRFDRCRHSNTCDETSSTKILFRG
B1: the binding result was “binds”.
